Measured values from PubChem BioAssay (NCATS).
The inconclusive results got no clear call from the source; some entries with a clear call stand among them for comparison. A potency beside an inconclusive call is a rough fit, not a confirmed value. Activity calls are given as the source filed them. The call rests on the fitted dose curve; in most records, active means well fitted cell-killing curve with a large enough effect; inconclusive means small, poorly fitted or top-dose-only effect, or effect the other way; inactive means no such curve, though single readings can be large or run the other way.

Experiment: Quantitative High-Throughput drug screen in 47 multiple myeloma cell lines against the NCATS MIPE library collection: MMM1_PLB cell viability assay (AID 1918976); further: nearly all actives have a fitted effect of over 35% in size
Conditions: MMM1 myeloma cells viability, CellTiter-Glo, 48 h; series mostly up to 45.8 µM
Text: PI: Beverly A. Mock Ph.D.
Laboratory of Cancer Biology and Genetics,
Center for Cancer Research, National Cancer Institute,
National Institute of Health, Bethesda, Maryland
Drug resistance and disease progression are common in multiple myeloma (MM) patients, underscoring the need for new therapeutic combinations. […] We hypothesized that effective combinations would reduce MYC expression and enhance p16 activity. […] These preclinical data identify potentially useful drug combinations for evaluation in drug-resistant MM and reveal potential mechanisms of combined drug sensitivity.
Described herein is the primary MIPE qHTS used to cherrypick compounds. Validated compounds were then further tested for potential synergistic activiy.
[1] Peat TJ, Gaikwad SM, Dubois W, Gyabaah-Kessie N, Zhang S, Gorjifard S, Phyo Z, Andres M, Hughitt VK, Simpson RM, Miller MA, Girvin AT, Taylor A, Williams D, D'Antonio N, Zhang Y, Rajagopalan A, Flietner E, Wilson K, Zhang X, Shinn P, Klumpp-Thomas C, McKnight C, Itkin Z, Chen L, Kazandijian D, Zhang J, Michalowski AM, Simmons JK, Keats J, Thomas CJ, Mock BA. Drug combinations identified by high-throughput screening promote cell cycle transition and upregulate Smad pathways in myeloma. Cancer Lett. 2023 Aug 1;568:216284. doi: 10.1016/j.canlet.2023.216284. Epub 2023 Jun 24. PMID: 37356470; PMCID: PMC10408729.
SEQUENCE No. (e.g., 1, 2, 3, etc.); […] (e.g., Cells, Incubation, Reagent, etc.); VALUE and DESCRIPTION.
1; Cells; 5 uL; white, solid bottom 1536-well Greiner assay plate.
2; Compounds; 23 nL; Kalypsis pin tool (Wako USA) equipped with a 1536-well pin head to transfer to the assay plates.
3; Incubation; 48 hours; 37C incubation.
4; Reagent;5uL; CellTiter Glo (Promega).
5; Detector; 425V; Luminescence; Viewlux PerkinElmer.
NOTES (numbers refer to Sequence numbers above)
1. The cell-based screening methods employed in this study were like those previously published. Briefly, the corresponding myeloma cell lines were screened in 1,536-well plates with 500 cells, 5-uL per well for inhibition of cell viability (assessed by measuring ATP levels with CellTiterGlo).
2. NCATS MIPE 4.0 library of approved and investigational drugs were added using the Kalypsis pin tool. Wells treated with DMSO only for 100% viability and media only for 0% viability were used as controls.
3. The assay plates were covered and incubated for 48 hours in a 37C, 5% CO2 incubator with controlled humidity.
4. After 48 hours, CellTilter-GloTM luminescent substrate mix (Promega) reagent was added to the assay plate and plates we incubated for 5 min at room temperature.
5. Signal was measured as median relative luminescence units on a ViewLux (PerkinElmer) multiplate reader.
[1] Heske CM, Davis MI, Baumgart JT, Wilson K, Gormally MV, Chen L, Zhang X, Ceribelli M, Duveau DY, Guha R, Ferrer M, Arnaldez FI, Ji J, Tran HL, Zhang Y, Mendoza A, Helman LJ, Thomas CJ. Matrix Screen Identifies Synergistic Combination of PARP Inhibitors and Nicotinamide Phosphoribosyltransferase (NAMPT) Inhibitors in Ewing Sarcoma. Clin Cancer Res. 2017 Dec 1;23(23):7301-7311. doi: 10.1158/1078-0432.CCR-17-1121. Epub 2017 Sep 12. PMID: 28899971; PMCID: PMC6636827.
Potency means the concentration at half of the fitted maximal effect.

Row | SMILES | Potency
1 | O=C1CCC(N2C(=O)c3ccccc3C2=O)C(=O)N1 (stereo not given) | active: 2960 nM
2 | NC(=O)c1cnccn1 | inconclusive: 23.5 nM [rising, full curve, poor fit]
3 | CCC(c1ccc(O)cc1)C(CC)c1ccc(O)cc1 (stereo not given) | inconclusive: 2960 nM [cytotoxic, partial curve, poor fit]
4 | C[C@@H]1[C@H](C)CC[C@]2(C(=O)O)CC[C@]3(C)C(=CC[C@@H]4[C@@]5(C)C[C@@H](O)[C@H](O)[C@@](C)(CO)[C@H]5CC[C@]43C)[C@@H]12 | inconclusive: 11.8 nM [rising, full curve]
5 | O=C1c2cccc(O)c2C(=O)c2c(O)cc(CO)cc21 | inconclusive: 13200 nM [cytotoxic, partial curve, poor fit]
6 | CC(C)(C)c1cc(C(C)(C)C)c(NC(=O)c2c[nH]c3ccccc3c2=O)cc1O | inconclusive: 5900 nM [cytotoxic, partial curve, poor fit]
7 | Cc1ccc(-c2cc(C(F)(F)F)nn2-c2ccc(S(N)(=O)=O)cc2)cc1 | inconclusive: 8330 nM [cytotoxic, partial curve, poor fit]
8 | O=C(O)CCCc1c[nH]c2ccccc12 | inconclusive: 1050 nM [cytotoxic, full curve, poor fit]
9 | CCOC(=O)c1ccc(C#Cc2ccc3c(c2)C(C)(C)CCS3)nc1 | inconclusive: 33200 nM [cytotoxic, single point]
10 | Cc1cnc(-c2cc(N3CCN(C(=O)CCS(C)(=O)=O)CC3)ncc2Cl)c(C)c1 | inconclusive: 6.6 nM [rising, full curve]
11 | O=P(O)(O)C(O)(Cc1cccnc1)P(=O)(O)O | inconclusive: 132 nM [rising, full curve]
12 | CCCCCCOC(=O)N=C(N)c1ccc(NCc2nc3cc(C(=O)N(CCC(=O)OCC)c4ccccn4)ccc3n2C)cc1 | active: 14800 nM
13 | COc1nc(N)nc2c1ncn2[C@@H]1O[C@H](CO)[C@@H](O)[C@@H]1O | inconclusive: 7430 nM [cytotoxic, partial curve, poor fit]
14 | CC(C)[N+]1(C)[C@@H]2CC[C@H]1CC(OC(=O)C(CO)c1ccccc1)C2 (stereo not given in full) | inconclusive: 18.7 nM [rising, full curve, poor fit]
15 | Cc1cc(Nc2cc(N3CCN(C)CC3)nc(C=Cc3ccccc3)n2)n[nH]1 | active: 30300 nM
16 | NC(N)=NC(=O)c1nc(Cl)c(N)nc1N | inconclusive: 13.2 nM [rising, full curve]
17 | O=C1C(CCC(O)c2ccc(F)cc2)C(c2ccc(O)cc2)N1c1ccc(F)cc1 (stereo not given) | inconclusive: 33200 nM [cytotoxic, single point]
18 | OC[C@H]1OC(O)C[C@@H](O)[C@H]1O (stereo not given in full) | inactive
19 | COc1ccc(-c2ccc3cc(C(=O)O)ccc3c2)cc1C12CC3CC(CC(C3)C1)C2 | active: 2640 nM
20 | O=C(c1ccc(F)cc1)C1CCN(CCn2c(=O)[nH]c3ccccc3c2=O)CC1 | inconclusive: 1870 nM [cytotoxic, partial curve, poor fit]

Quoted at random: 3 compounds from above, in no set order.
Row | SMILES | Potency
13 | COc1nc(N)nc2c1ncn2[C@@H]1O[C@H](CO)[C@@H](O)[C@@H]1O | inconclusive: 7430 nM [cytotoxic, partial curve, poor fit]
6 | CC(C)(C)c1cc(C(C)(C)C)c(NC(=O)c2c[nH]c3ccccc3c2=O)cc1O | inconclusive: 5900 nM [cytotoxic, partial curve, poor fit]
19 | COc1ccc(-c2ccc3cc(C(=O)O)ccc3c2)cc1C12CC3CC(CC(C3)C1)C2 | active: 2640 nM

Next entries follow.

Row | SMILES | Potency
21 | CCc1cc(C(C)=NOCc2ccc(C3CCCCC3)c(C(F)(F)F)c2)ccc1CN1CC(C(=O)O)C1 | inconclusive: 33200 nM [cytotoxic, single point]
22 | Cc1ccccc1C(C(=O)NC1CCCCC1)N(C(=O)CNc1ccc(C#N)cc1)c1cccc(F)c1 (stereo not given) | inconclusive: 4180 nM [cytotoxic, full curve, poor fit]
23 | Cc1cc(C(C)(C)C)cc(C)c1CC1=NCCN1 | inconclusive: 6.6 nM [rising, full curve, poor fit]
24 | COc1cc(OC2CCN(C)CC2)ccc1Nc1ncc2c(n1)n(C1CCCC1)c(=O)n2C | inconclusive: 14800 nM [cytotoxic, partial curve]
25 | C[C@H]1COC2=C1C(=O)C(=O)c1c2ccc2c1CCCC2(C)C | active: 13200 nM
26 | CC[C@H](CC[C@@H](C)[C@H]1CC[C@H]2[C@@H]3CC=C4C[C@@H](O)CC[C@]4(C)[C@@H]3CC[C@]12C)C(C)C | inconclusive: 4690 nM [cytotoxic, partial curve, poor fit]
27 | N=C(N)c1ccc2cc(OC(=O)c3ccc(N=C(N)N)cc3)ccc2c1 | active: 935 nM
28 | CN1CCN(c2cc(C(=O)Nc3ccc4c(c3)-c3c(c(C(N)=O)nn3-c3ccc(F)cc3)CC4)c(Cl)cn2)CC1 | inconclusive: 16600 nM [cytotoxic, partial curve, poor fit]
29 | C#CCN(C)CC1=Cc2ccccc2Oc2ccccc21 | inconclusive: 296 nM [cytotoxic, full curve, poor fit]
30 | COc1cc2ncnc(Nc3cc(Br)c(O)c(Br)c3)c2cc1OC | inconclusive: 4.7 nM [rising, full curve]
31 | O=C(NCCCCN1CCOCC1)c1cc2ccccc2o1 | inconclusive: 1 nM [cytotoxic]
32 | COc1nc(C)nc(Cl)c1NC1=NCCN1 | inconclusive: 3.3 nM [rising, full curve]
33 | O=C(O)C(=O)Nc1cccc(C2=NN=N[N]2)c1 | inconclusive: 6.6 nM [rising, full curve, poor fit]
34 | CC(C)(N)c1ccc(-c2nc3ccccc3nc2-c2ccccc2)cc1 | active: 18700 nM
35 | FC(F)(F)c1ccc(C=Cc2nc(COc3ccc(CCCCn4ccnn4)cc3)co2)cc1 | inconclusive: 8.3 nM [cytotoxic, full curve]
36 | CN(C)CC(=O)N1CCC(c2ccc(NC(=O)c3ncc(C#N)[nH]3)c(C3=CCCCC3)c2)CC1 | inconclusive: 5900 nM [cytotoxic, full curve, poor fit]
37 | CCCCn1c(=O)n(Cc2ccccc2F)c(=O)c2[nH]c(Cc3ccc(NC(C)=O)cc3)nc21 | inconclusive: 3320 nM [cytotoxic, partial curve, poor fit]
38 | O=C(O)CCNC(=O)c1ccc(N=Nc2ccc(O)c(C(=O)O)c2)cc1 | inconclusive: 132 nM [cytotoxic, full curve, poor fit]
39 | CNC(=O)c1ccc2c(C(=Nc3cccc(CN(C)C)c3)c3ccccc3)c(O)[nH]c2c1 | inconclusive: 5.9 nM [rising, full curve, poor fit]
40 | CN1CC(=O)NC1=NC(=O)Nc1cccc(Cl)c1 | active: 20900 nM
